Laboratory results taken from US20250332297A1, “DLL3-SPECIFIC BINDING CONSTRUCTS AND THEIR USE IN RADIOTHERAPY” (MOLECULAR PARTNERS AG, priority 2024, published 2025).
These are yes or no findings as the source states them, for the method shown. Some entries that bind do so weakly or less than the wild type. For part of these data: Where a sequence is shown, tags or fusion partners need not be part of it. Each block holds one binder with its values, some of them ahead of it.

Protein sequences, listed by entry. Tags and fused reporters are not part of them. Residues count along the entry.
UniProt O88516, residues 33-490: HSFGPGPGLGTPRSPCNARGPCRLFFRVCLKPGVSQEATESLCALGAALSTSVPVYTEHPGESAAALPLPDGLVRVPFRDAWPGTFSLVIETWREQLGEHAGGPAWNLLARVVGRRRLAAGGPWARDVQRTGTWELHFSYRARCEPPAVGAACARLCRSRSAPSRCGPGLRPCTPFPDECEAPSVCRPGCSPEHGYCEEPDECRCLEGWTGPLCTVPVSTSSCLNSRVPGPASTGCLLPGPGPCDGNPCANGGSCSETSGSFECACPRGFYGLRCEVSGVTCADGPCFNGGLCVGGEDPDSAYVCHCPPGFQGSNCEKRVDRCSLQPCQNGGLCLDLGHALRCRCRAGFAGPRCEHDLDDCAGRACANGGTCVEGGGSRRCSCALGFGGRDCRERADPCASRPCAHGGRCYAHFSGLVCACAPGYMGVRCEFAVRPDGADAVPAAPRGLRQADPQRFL

Columns and labels:
Test in all cases: SPR
[1] = biological target: Cyno DLL3-ECD (extracellular domain of cynomolgus macaque DLL3, residues 27 to 466, Avi-tag, 3C site, Fc knob into hole) (cynomolgus macaque)
[2] = biological target: mouse DLL3-ECD (recombinant extracellular domain of mouse DLL3) (mouse) (UniProt O88516)
[3] = biological target: Dog DLL3-NTD (truncated dog DLL3, N-Terminal Domain, residues 27-189, C-terminal 6xHis and Avi-tag) (dog)

binding [1]: binds
binding [2]: binds
B1: Biotinylated 1D DARPin MAM093 (SEQ ID NO: 1) with a Glycine-Serine (GS) at the N-terminal end (designed binder)
chain: GSDLGKKLLAAAAQGQDDEVRELLKAGANVNAKDLFGYTPLHLAAWRGHLEIVEVLLKAGADVNAKDAAGETPLHLAAWFGHLEIVEVLLKAGADVNAQDLQGKTPADLAAKEGHEDIAEVLQKAA
modifications: biotinylated (site and any tag used not stated)
notes: also called Biotinylated DARPin MAM093

binding [1]: binds
binding [2]: binds
B2: Biotinylated 2D DARPin MAM279 (SEQ ID NO: 11) with a Glycine-Serine (GS) at the N-terminal end (designed binder)
chain: GSDLGKKLLEAARAGQDDEVRELLKAGADVNAKDYFSHTPLHLAARNGHLKIVEVLLKAGADVNAKDFAGKTPLHLAADAGHLEIVEVLLKAGADVNAQDIFGKTPADIAADAGHEDIAEVLQKAAGSPTPTPTTPTPTPTTPTPTPTGSDLGKKLLAAAAQGQDDEVRELLKAGANVNAKDLFGYTPLHLAAWRGHLEIVEVLLKAGADVNAKDAAGETPLHLAAWFGHLEIVEVLLKAGADVNAQDLQGKTPADLAAKEGHEDIAEVLQKAA
modifications: biotinylated (site and any tag used not stated)
notes: also called Biotinylated DARPin MAM279

binding [3]: binds
binding [1]: binds
B3: MAM279-DOTAM (GS-MAM279-tag, SEQ ID NO: 15, conjugated to the chelator DOTAM) (designed binder)
chain: GSDLGKKLLEAARAGQDDEVRELLKAGADVNAKDYFSHTPLHLAARNGHLKIVEVLLKAGADVNAKDFAGKTPLHLAADAGHLEIVEVLLKAGADVNAQDIFGKTPADIAADAGHEDIAEVLQKAAGSPTPTPTTPTPTPTTPTPTPTGSDLGKKLLAAAAQGQDDEVRELLKAGANVNAKDLFGYTPLHLAAWRGHLEIVEVLLKAGADVNAKDAAGETPLHLAAWFGHLEIVEVLLKAGADVNAQDLQGKTPADLAAKEGHEDIAEVLQKAAGSGSC
notes: also called DOTAM-conjugated MAM279; MAM279 conjugate
